From PubChem BioAssay record AID1159506 (NCATS, 2015).

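Luminescence from an EWS-FLI1 target-promoter (NR0B1) reporter, set against a CMV-promoter reporter, two days after silencing single genes in TC32 Ewing sarcoma cells.
Each siRNA was applied at 20 nM.
A z-score of the log NR0B1-over-CMV signal, less the median of siRNAs with the same seed; more negative means a stronger specific loss of the NR0B1 reporter.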

The strongest results of the screen are mostly left out here.
Sequences are the guide (antisense) strand, without overhang.

| siRNA | gene | seed-corrected z-score |
|---|---|---|
| `UCUCAUUGCAGCUAAUAUC` | LRCH2 | 1.014 |
| `UACAGGUUCACAAAGUGCU` | OGFOD3 | -1.539 |
| `UCUUUAUCGUGUCUAAUAC` | FAM173A | 0.4793 |
| `UCUCCAAAUAUCAAAGCCC` | DYNLL1P7 | 0.09054 |
| `AUACUUCGCAGCAAAAUGC` | PIK3AP1 | -1.079 |
| `ACCAAAAUCACGUCCAUGC` | DNMT3L | 0.5056 |
| `UAAGGAUUUGAUCAUAGCC` | SLC17A4 | -0.5034 |
| `UGCUGAUUUCUUCAAAUGC` | PNRC1 | 0.1314 |
| `AUACAGUCUAGGAACUGGG` | MTMR8 | 1.58 |
| `ACCUUGACCACAACGAUGU` | ADAMTS15 | -0.8412 |
| `AUGCUGGACAGGUAGAGGU` | GHSR | -1.823 |
| `UACUCGUUUCCUGACAGUC` | PDE8B | -0.3093 |
| `UUUCUACCCAGGUCAAAGA` | RPL10L | -0.1445 |
| `UUACUUUUCUGCGGAAGUC` | PTPRN2 | -0.8427 |
| `AGAAGUUAAACCUGCGUCC` | PARL | 1.322 |
| `UGCAGUAAGACUGAUAGCC` | DNMT3B | -0.9442 |
| `UUCCAUAAAGCCGAGAUUC` | SLC25A17 | 0.4937 |
| `UUAGUGAGAACACGGAGAG` | RTP1 | 0.9879 |
| `UUUCGGAAGCGGAAUUUCC` | GMFG | 0.9004 |
| `AUAUGUUUCACUAUGAGAG` | SIGLECL1 | -1.046 |
| `UCUGUUAUACACUUUGACC` | CBLN2 | -0.8299 |
| `UCUGUAUAUACAUCAACGC` | RALGAPB | -0.07809 |
| `UCGUGUACGAGUAAGUGAG` | IL1R2 | 1.997 |
| `UUAUCUGCGAAAAUUAAGG` | PANK4 | -0.6714 |
| `UUUACCAUAUGCGUUAUUC` | PLEKHA8P1 | 0.6124 |
| `CAGCUGUUUCUUCCAGACU` | ARL6IP1P2 | -1.371 |
| `UGUGGUAAUAGCACAGGUG` | SEC63 | 1.607 |
| `ACAUUAAAAUUGAUGAUCG` | MOCOS | 0.2104 |
| `UCACCAAAUCGCCAGAGGC` | NFKBIL1 | 0.6602 |
| `UGACAGGCGGCAUUGUUCC` | PRM1 | 0.4708 |
| `UAAUCUGACAAAAAGGGUG` | SKAP1 | 0.1706 |
| `UAGGUAUGGUGGAAGCGGC` | RUNX3 | -0.4534 |
| `UUUCCUUCAAGAGAGGUCG` | SCML4 | -0.03856 |
| `UGACGUACAUUGGUCCUUC` | ERN2 | -0.5321 |
| `AAUAUCCCGAGAGAGGUCG` | CT83 | -1.331 |
| `AAAGUACGAGCCCUUGUCC` | RIN3 | -0.856 |
| `UAACCACUGAGAUUGCUUC` | LCOR | 0.218 |
| `UCUCUGGUCAGCACAAUCU` | NT5M | -0.3126 |
| `UAAAGUACUAUUCUUCAAA` | SKIDA1 | 0.7804 |
| `UUUCGGAUUCUUCGCAUGC` | MYO16 | -0.6163 |
| `UAAAAUUCUAGCAAGUGUU` | SNRPN | 0.03554 |
| `UACAAAAGCUCCGUGUCUC` | C2orf73 | 1.53 |
| `UGAUCUACGACGGAAGUUC` | ZNF234 | 0.1373 |
| `UCUCGUAAGACGAUAGAGG` | RAPGEF4 | 1.033 |
| `AAAUAAUCCAGAGCUAGUC` | C17orf53 | 0.0498 |
| `UGCAGUUGAACAUCUCUUC` | RAB35 | 0.3249 |
| `UCACGAGUGAGUUGAACGG` | TMEM187 | 0.312 |
| `UUGCUCAUUCUAAUUAUUU` | LAIR2 | 0.02024 |
| `AGAAAUUCGACUUCUGUCU` | PIRT | 1.088 |
| `AGACGAACAAGUAUCAUCU` | NMU | -0.4275 |
| `UAGGGCAAAAGACUGGAUG` | DEFB4A | -0.4976 |
| `UUUUCGACAAUUUAUUACG` | EML4 | 0.2353 |
| `UCCCUGUUCAGUCCAUAGG` | ZDHHC3 | -0.6744 |
| `AGAGAUACCUCUGUGCCCU` | KLHL33 | -1.525 |
| `UUUCCUUCCUGCGUAUUUC` | TMPRSS9 | -0.9233 |
| `UACAUCGUAAUCGCCCUUC` | PTPN14 | 0.4476 |
| `UUACAUUGAACCAUUUUAC` | YBX1 | 0.7647 |
| `UUCCUAAUUACGGAAGUUG` | MCL1 | 3.255 |
| `UCAUUUAUCAAAUAGUGAG` | CX3CR1 | -0.4655 |
| `UUCGUAGGCAAGGUCGUCC` | LOC283804 | -0.2209 |
| `UGAUAUACACGCCUCCACC` | RIOK1 | -0.7649 |
| `UACUAUCCAAAAUCCGUAC` | TRPM7 | -0.1926 |
| `AAGACUAAAACCGUCAGUC` | CAPNS2 | 0.1544 |
| `AUUCGGAACACUAUGGUGG` | KNTC1 | 0.4939 |
| `AUGCGUACAACUCCUCUUC` | TMEM59 | -0.2481 |
| `UGACGAACAUCUCCUACGG` | NEK1 | -0.5753 |
| `UUGGGCAAUACGGUUAUCC` | AQP7 | 0.7993 |
| `UAUUGGUGUCUGUAGCUUC` | ENTPD4 | 0.2874 |
| `UCUCUGUACAGCUUUCUCU` | ZNF705A | -0.7645 |
| `UAAGUUCUAUCUGAUUCCC` | SDHC | -0.5167 |
| `UUAGUGCAAAGAACGAACC` | TTYH3 | 0.521 |
| `UAUCGUAAAAGAAUAUGAG` | MICU3 | 0.2926 |
| `AAAUUGCCCAAUUAUUUUG` | LOC400867 | 0.1259 |
| `UAAGGCGACACUUGGGCUG` | PAX9 | -0.3712 |
| `UCAAAGAUGAGAUAUAACC` | CDK1 | 0.4051 |
| `UACUCAACCCUGUCUAUGG` | C1orf101 | 0.03393 |
| `UUGGGAUCUAGCUUCUGCC` | TPI1 | -0.8269 |

6 of the entries, repeated:

UACAUCGUAAUCGCCCUUC against PTPN14 gave seed-corrected z-score 0.4476.
UAAGGAUUUGAUCAUAGCC against SLC17A4 gave seed-corrected z-score -0.5034.
UAAGGCGACACUUGGGCUG against PAX9 gave seed-corrected z-score -0.3712.
UUUUCGACAAUUUAUUACG against EML4 gave seed-corrected z-score 0.2353.
UGAUAUACACGCCUCCACC against RIOK1 gave seed-corrected z-score -0.7649.
UAAGUUCUAUCUGAUUCCC against SDHC gave seed-corrected z-score -0.5167.